Laboratory results reported in patent US20200246316A1, “METHODS OF TREATING POST-SURGICAL PAIN WITH A THIAZOLINE ANTI-HYPERALGESIC AGENT” (CERSCI THERAPEUTICS, INC., priority 2019, published 2020).
Some of these results come from one statement about several compounds together.

System: rat hind paw incision model
Experiment: Brennan incisional pain model, prophylactic paradigm
Type: in vivo
Details: 24-, 48-, 72-h post-incision; Compound 1 30 mg/kg PO, celecoxib 30 mg/kg PO, morphine 10 mg/kg SC
From the text: Two incisional pain models were used to assess Compound 1 effects on hyperalgesia. The first model is referred to as the Brennan model in which, under anesthesia, a 1 cm longitudinal incision to the skin and underlying fascia of a rat hindpaw is made. The second is a variation but is a more invasive procedure in which the skin and muscle are spread apart using forceps which creates a longer-lasting hypersensitivity.
Using the Brennan protocol and a prophylactic paradigm, Compound 1 (3 doses given PO) or vehicle was administered 15 min prior to incision. At the 24-, 48-, and 72-h time points post-incision, mechanical thresholds were obtained (manual von Frey filament, using up/down method).
In a subsequent experiment, the same paradigm was used with Compound 1 administered at a dose of 30 mg/kg PO along with positive control group consisting of celecoxib (30 mg/kg PO), morphine (10 mg/kg SC), and vehicle.

CN1CC[C@]23c4c5ccc(O)c4O[C@H]2[C@@H](O)C=C[C@H]3[C@H]1C5 [morphine, reference compound]
mechanical withdrawal thresholds: 13 to 18 g
